Test results as given in patent US20240026034A1.
No constants are given. Whether binding was seen depends on the method and setting. Some binding calls cover weakened binding; strength is not graded here.

Experiments:
[1] = biological target: T1, QSOX1 (human) (UniProt O00391); test: antigen capture ELISA on human plasma, biotinylated 2F1 as detector
T1 sequence (looked up): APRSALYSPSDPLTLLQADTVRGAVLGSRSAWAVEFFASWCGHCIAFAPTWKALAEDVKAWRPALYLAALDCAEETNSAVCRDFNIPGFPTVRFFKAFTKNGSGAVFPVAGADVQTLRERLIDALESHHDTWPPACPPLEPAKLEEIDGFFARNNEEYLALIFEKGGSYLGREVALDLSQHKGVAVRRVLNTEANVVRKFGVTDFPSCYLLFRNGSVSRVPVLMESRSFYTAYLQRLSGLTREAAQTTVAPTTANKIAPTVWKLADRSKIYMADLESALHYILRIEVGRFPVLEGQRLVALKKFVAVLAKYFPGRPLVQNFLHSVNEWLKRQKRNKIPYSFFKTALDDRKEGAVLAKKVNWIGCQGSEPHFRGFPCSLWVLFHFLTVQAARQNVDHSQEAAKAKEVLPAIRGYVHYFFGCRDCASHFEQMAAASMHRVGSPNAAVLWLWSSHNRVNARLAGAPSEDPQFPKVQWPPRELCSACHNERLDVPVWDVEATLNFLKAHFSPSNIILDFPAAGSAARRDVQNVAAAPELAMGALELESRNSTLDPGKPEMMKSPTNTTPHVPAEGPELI

[2] = biological target: T1, QSOX1 (human); test: blot
[3] = biological target: T1, QSOX1 (human); test: blot binding assays on QSOX1 and its mutants

Measured: binding

B1: 2F1 anti-QSOX1 monoclonal antibody (antibody, V domains shown)
VH: EVQLEESGPGLVAPSQSLSITCTVSGFSLTDYGVTWIRQPPGKGLEWLGVIWGDGSTYYNSALKSRLSISKDDSKSQVFLKMNSLQTDDTAMYYCAGALYDGYYGYWGQGTTLTVSS
VL: DIVLTQTHKFMSTSVGDRVSITCKASQDVSTAVAWYQQKPGQSPKLLIYSASYRYSGVPDRFTGSGSGTDFTFTISSVQAEDLAVYYCQQHYSTPLTFGAGTKLELK
binds: all assays above
